Reference: PubChem BioAssay AID624297 (National Center for Advancing Translational Sciences (NCATS), 2012)
The campaign covered roughly 340,000 compounds. About 6,200 (1.8%) were called active. This list was built around the results that the source calls inconclusive (neither active nor inactive); the mix of calls is not that of the screen. The call rests on the fitted dose curve; in most records, active means well fitted activation curve with a large enough effect; inconclusive means small, poorly fitted or top-dose-only effect; inactive means no such curve, though single readings can be large or run the other way. Potencies of inconclusive entries are doubtful fits and often do not repeat.
Potency means the concentration at half of the fitted maximal effect.

Assay: A quantitative high throughput screen for small molecules that induce DNA re-replication in SW480 colon adenocarcinoma cells. Further: nearly all actives have a fitted effect of over 55% in size. On re-replication activation: % of control where 0% means no effect.
Conditions: Hoechst DNA content imaging, 48 h; re-replication activation: at 46.1 µM (top of the series)
Procedure, shortened: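 Treated cells incubate 48 hr (37 C, 5% CO2), are stained 40 min with Hoechst, and nuclear fluorescence is enumerated; a rise in nuclei with high DNA signal marks re-replication.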
In the case of `CCOc1ncccc1C(=O)NCc1ccccc1Cl`, the Potency is reported as inconclusive: 8.2 µM [activator, partial curve, poor fit].
In the case of `Cc1cccc(N2CCN(C(=O)CN3C(=O)NC(C)(C4CC4)C3=O)CC2)c1C` (stereo unspecified), the Potency is reported as inconclusive: 2.59 µM [activator, single point].
For `COC(=O)c1ccc(NC(=O)CSc2nnc(C)n2-c2ccccc2)cc1`, the Potency was “inactive”.
In the case of `O=C(CN1C(=O)NC(c2ccccc2)(c2ccccc2)C1=O)N1CCN(c2ccc(F)cc2)CC1`, the Potency is reported as inconclusive: 29.1 µM [activator, single point].
For `CCCCC(=O)NC(c1ccc(N(C)C)cc1)c1ccc2cccnc2c1O` (stereo unspecified), the Potency was inconclusive: 0.651 µM [activator, full curve, poor fit].
With `N#Cc1ccc(OCC(=O)N2CCN(c3ccc(C(F)(F)F)cn3)CC2)cc1` the Potency was inconclusive: 32.6 µM [activator, partial curve, poor fit].
For `CC1CCN(Cc2nnnn2CCCC(=O)NCCc2cnn(C)c2)CC1`, the Potency was “inactive”.
With `CCOC(=O)N1CCN(C(=O)C(c2ccccc2)c2ccccc2)CC1` the Potency was inconclusive: 7.31 µM [activator, full curve, poor fit].
In the case of `CCC(C)(C)n1nnnc1C(c1cccs1)N1CCN(c2nc3ccccc3s2)CC1` (stereo unspecified), the Potency is reported as inconclusive: 25.9 µM [activator, single point].
With `CN(C)c1ccc(/C=N/n2ncc3ccccc32)cc1` the Potency was inconclusive: 20.6 µM [activator, single point].
In the case of `C/C=C/c1ccc(OCCOc2cccc3cccnc23)c(OC)c1`, the Potency is reported as inconclusive: 32.6 µM [activator, partial curve, poor fit].
With `Cc1cc(C)c(S(=O)(=O)c2cccc(C)c2C)c(=O)[nH]1` the Potency was “inactive”.
With `NC(=S)N/N=C1\CC(c2ccc3c(c2)OCCO3)Oc2ccc(F)cc21` (stereo unspecified) the Potency was “inactive”.
For `CCOC(=O)C1=C(CC)Nc2ccccc2N=C1NC(=O)c1cccc(S(=O)(=O)N2CCCC2)c1`, the Potency was inconclusive: 13 µM [activator, partial curve, poor fit].
With `CC(C)(C)OC(=O)C[C@H]1C/C=C\C[C@@H](CC(=O)N[C@H](CO)Cc2ccccc2)C(=O)NC[C@H](c2ccccc2)OC1=O` the Potency was “inactive”.
For `O=C(C1=C[C@@H](C2CCCCC2)C[C@@H](OCCCCO)O1)N1CCN(Cc2ccc3c(c2)OCO3)CC1`, the re-replication activation was inactive: -21.7% [at 9.22 µM].
With `O=C1c2ccc3c4c(ccc(c24)C(=O)N1CCCCO)C(=O)N(CCCCO)C3=O` the Potency was inconclusive: 2.06 µM [activator, full curve].
For `CCC1Sc2ccc(S(=O)(=O)CCC(=O)NCc3cccs3)cc2NC1=O` (stereo unspecified), the Potency was inconclusive: 13 µM [activator, partial curve, poor fit].
In the case of `COCCn1c(SCC(=O)NC(C)c2ccc(F)cc2)nc2ccccc21` (stereo unspecified), the Potency is reported as inconclusive: 16.4 µM [activator, partial curve, poor fit].
With `CCN(CC)CCN1C(=O)C(=O)/C(=C(/O)c2ccc(S(=O)(=O)N3CCOCC3)cc2)C1c1ccc(Cl)cc1` (stereo unspecified) the Potency was “inactive”.
In the case of `CCn1c(SCC(=O)OC)nc2cc(S(=O)(=O)N3CCOCC3)ccc21`, the Potency is reported as inconclusive: 0.0731 µM [activator, full curve, poor fit].
For `CC(C)(C)c1ccc(C(=O)Nc2ccc(C(=O)NCc3cccnc3)cc2)cc1`, the Potency was inconclusive: 1.03 µM [activator, full curve, poor fit].
In the case of `C=CCn1c(CCNC(=O)c2cccs2)nnc1SCC(=O)c1ccc(Cl)cc1`, the Potency is reported as inconclusive: 29.1 µM [activator, single point].
In the case of `CCOc1ccc(NC(=O)CN(C)C(=O)c2ccc(OCc3ccccc3)c(OC)c2)cc1OCC`, the Potency is reported as inconclusive: 29.1 µM [activator, partial curve, poor fit].
With `CCc1nc(SCC(=O)c2ccc3c(c2)OCCO3)c2ccccc2n1` the Potency was inconclusive: 32.6 µM [activator, partial curve, poor fit].
For `COc1ccc(CCNc2cc(C)nc3c(-c4ccccc4)cnn23)cc1OC`, the Potency was “inactive”.
With `NC(=S)NC(c1ccccc1)c1ccncc1` (stereo unspecified) the Potency was “inactive”.
In the case of `Cc1cc(-c2cccc([N+](=O)[O-])c2)nc2ccc3ccccc3c12`, the Potency is reported as inconclusive: 18.4 µM [activator, single point].
In the case of `CC(C)(C)c1csc(NNC(=O)c2ccc(Cl)cc2)n1`, the Potency is reported as inconclusive: 25.9 µM [activator, single point].
For `S=C(Nc1ccccc1)Nc1nc2ccccc2n1CCOc1ccccc1`, the Potency was inconclusive: 29.1 µM [activator, single point].
For `CCC(C)N(C(=O)c1csnn1)C(C(=O)NCc1ccc(F)cc1)c1ccco1` (stereo unspecified), the Potency was “inactive”.
With `C/C(=N\NC(=S)Nc1ccc(F)cc1)c1ccc2c(c1)OCCO2` the Potency was inconclusive: 20.6 µM [activator, single point].
With `COc1ccc(Cl)cc1NC(=O)CN(C)C(=O)c1cc2c(F)cccc2s1` the Potency was inconclusive: 29.1 µM [activator, single point].
With `O=C(NCCN1CCOCC1)c1ccc2c(c1)N(Cc1c(F)cccc1Cl)C(=O)c1ccccc1S2` the Potency was active: 5.8 µM.
With `CC(C)n1cnc2c(NCc3ccc(S(N)(=O)=O)cc3)nc(NCc3ccc(S(N)(=O)=O)cc3)nc21` the Potency was “inactive”.
With `COc1ccc(S(=O)(=O)Nc2ccc3c(c2)C(=O)N([C@H](C)CO)C[C@H](C)[C@@H](CN(C)C(=O)Nc2ccccc2)O3)cc1` the Potency was “inactive”.
With `CC(C)c1ccc(CNc2ccc([N+](=O)[O-])cn2)cc1` the Potency was “inactive”.
In the case of `O=C(NN1C(=O)c2cc(Br)ccc2NC1c1cc(Br)cc(Br)c1O)c1ccncc1` (stereo unspecified), the Potency is reported as inconclusive: 29.1 µM [activator, single point].
For `N=c1c(C(=O)NC2CCCC2)cc2c(=O)n3ccccc3nc2n1Cc1ccccc1`, the Potency was inconclusive: 1.64 µM [activator, partial curve].
In the case of `COc1ccc(C2/C(=C(/O)c3ccccc3)C(=O)C(=O)N2C)cc1` (stereo unspecified), the Potency is reported as “inactive”.
With `CCOc1ccccc1NC(=O)c1ccc(-n2cncn2)nc1` the Potency was inconclusive: 1.46 µM [activator, full curve, poor fit].
For `CCOC(=O)C1CCN(C(=O)Cc2c(F)cccc2Cl)CC1`, the Potency was inconclusive: 0.184 µM [activator, full curve, poor fit].
With `O=C(c1cnccn1)N1CCc2c([nH]c3ccccc23)C1c1cccc(Cl)c1` (stereo unspecified) the Potency was “inactive”.
For `Nc1c(Cl)ncnc1N/N=C/c1cccc(O)c1`, the Potency was “inactive”.
For `CN(C)/C=C/C(=O)c1ccccc1OCc1cnc(Cl)s1`, the Potency was inconclusive: 29.1 µM [activator, single point].
With `CCN(CC)CCOC(=O)c1ccc(N/C=C(/C#N)c2nc(-c3cc4ccccc4oc3=O)cs2)cc1` the Potency was inconclusive: 3.26 µM [activator, single point].
With `COc1ccc(N(CC(=O)NCc2ccc3c(c2)OCO3)S(=O)(=O)c2ccccc2[N+](=O)[O-])c(OC)c1` the Potency was inconclusive: 29.1 µM [activator, partial curve, poor fit].
With `O=C(COc1nsnc1N1CCOCC1)N/N=C/c1ccccc1O` the Potency was active: 18.4 µM.
For `COCCSc1nc(N)c2c3c(sc2n1)CN(C)CC3`, the Potency was inconclusive: 29.1 µM [activator, single point].
With `Cc1c(CN(C)C)c2c(n1Cc1ccccc1)C(=O)c1ccc(Br)cc1-2` the Potency was inconclusive: 29.1 µM [activator, single point].
For `CCOc1ccc(Nc2ccnc3cc(Cl)ccc23)cc1`, the Potency was inconclusive: 20.6 µM [activator, single point].
With `Cc1cccc(C(=O)O)c1[N+](=O)[O-]` the Potency was inconclusive: 23.1 µM [activator, single point].
With `CC(C)N1CCc2c(sc(NC(=O)CCS(=O)(=O)c3ccccc3)c2C#N)C1` the Potency was inconclusive: 29.1 µM [activator, single point].
For `CCOc1ccc(CN(C)C(=O)c2cccnc2SC)cc1OC`, the Potency was inconclusive: 8.91 µM [activator, partial curve, poor fit].
In the case of `CS(=O)(=O)N(CC(=O)Nc1ccc(S(=O)(=O)N2CCOCC2)cc1)c1ccccc1Cl`, the Potency is reported as “inactive”.
For `CC(C)CC1NC(=S)N(Cc2ccccc2)C1=O` (stereo unspecified), the Potency was inconclusive: 29.1 µM [activator, single point].
In the case of `OCCn1c(CSc2nnc(-c3ccco3)n2-c2ccccc2)nc2ccc(Cl)cc21`, the Potency is reported as “inactive”.
For `CCCc1nc(SCC(=O)N2CCc3ccccc3C2)c2ccccc2n1`, the Potency was inconclusive: 29.1 µM [activator, single point].
In the case of `O=CNn1cnc2c(oc3nc(-c4ccccc4)cc(-c4ccco4)c32)c1=O`, the Potency is reported as “inactive”.
With `Cc1cc(C(=O)OCC(=O)NCc2ccco2)c(C)n1-c1ccc(F)cc1` the Potency was active: 3.66 µM.
For `COc1cc(CC(NC(C)=O)C(=O)NC2CCN(C(=O)c3ccc(C)cc3)CC2)cc(OC)c1` (stereo unspecified), the Potency was inconclusive: 1.46 µM [activator, full curve].
For `Cc1ccc2[nH]c(=O)c(CN(CCCN(C)C)C(=O)Nc3ccc(Cl)cc3)cc2c1`, the Potency was inconclusive: 29.1 µM [activator, single point].
In the case of `COc1cc(/C=C(/C#N)c2nc3ccccc3[nH]2)ccc1OCC(=O)Nc1ccccc1C(C)C`, the Potency is reported as inconclusive: 25.9 µM [activator, single point].
With `O=C(CCS(=O)(=O)c1ccccc1)Nc1nc2cc3c(cc2s1)OCO3` the Potency was inconclusive: 20.6 µM [activator, single point].
With `O=C(COC(=O)c1c2c(nc3ccccc13)/C(=C\c1cccs1)CCC2)Nc1ccccc1` the Potency was active: 13 µM.
For `CC1CCCCN1C(=O)c1ccc(OC2CCN(S(=O)(=O)N(C)C)CC2)cc1` (stereo unspecified), the Potency was “inactive”.
